{
  "sequences": {"note": "By UniProt entry, the sequences of proteins in these tests, tags left out.", "UniProt O15379, whole entry, looked up": "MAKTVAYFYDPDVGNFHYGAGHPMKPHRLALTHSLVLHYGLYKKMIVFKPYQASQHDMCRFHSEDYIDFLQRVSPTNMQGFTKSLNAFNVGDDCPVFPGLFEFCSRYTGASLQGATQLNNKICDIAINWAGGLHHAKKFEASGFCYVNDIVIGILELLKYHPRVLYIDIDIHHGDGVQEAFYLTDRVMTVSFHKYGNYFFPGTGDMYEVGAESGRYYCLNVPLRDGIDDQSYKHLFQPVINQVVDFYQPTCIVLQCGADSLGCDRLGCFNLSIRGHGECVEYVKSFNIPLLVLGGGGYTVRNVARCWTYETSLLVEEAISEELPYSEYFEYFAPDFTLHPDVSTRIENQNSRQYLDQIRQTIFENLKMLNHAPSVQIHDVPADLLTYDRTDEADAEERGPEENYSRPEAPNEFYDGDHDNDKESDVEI"},
  "source": "PubChem BioAssay AID2718",
  "about": "(Broad Institute, 2010)",
  "note": "In all, about 320,000 compounds went through this assay and about 480 (0.15%) were called active. This list was built around the results that the source calls inconclusive (neither active nor inactive); the mix of calls is not that of the screen. Cut-off read from the data, not from the text of the source: active = inhibition above about 26% (passing the limit was not always enough); inconclusive = no clear call, values can overlap the other calls.",
  "data": [
    {"target": "Histone deacetylase 3 (Homo sapiens) (UniProt O15379)", "experiment": "HDAC3 deacetylase inhibitors, primary screen, biochemical, fluorescence, cell-free homogeneous (AID 2718)", "conditions": "recombinant HDAC3, fluorogenic peptide/trypsin coupled, at 8.3 µM, hits give high values", "values": [
      {"compound": "c1ccc(-c2nn3c(Cn4nnc5ccccc54)nnc3s2)nc1", "inhibition": "inactive: 0.046%"},
      {"compound": "COc1ccc(CC2(CO)CCN(S(=O)(=O)c3c(C)nn(C)c3C)CC2)cc1", "inhibition": "inconclusive: 22.3%"},
      {"compound": "COc1ccccc1N1CSC2=C(C#N)C(c3ccc(SC)cc3)CC(=O)N2C1", "note": "(stereo unspecified)", "inhibition": "inconclusive: 23.7%"},
      {"compound": "COc1ccc(CC2(CO)CCN(C(C)Cc3ccc(Cl)cc3)CC2)cc1", "note": "(stereo unspecified)", "inhibition": "inactive: -2.71%"},
      {"compound": "COC(=O)COc1cccc2c(=O)n(CC(=O)Nc3ccc4c(c3)OCCO4)ccc12", "inhibition": "inactive: 7.42%"},
      {"compound": "O=C1OC(c2ccc(Cl)cc2)=N/C1=C\\C=C\\c1ccco1", "inhibition": "inconclusive: 19.3%"},
      {"compound": "O=C(O)c1cccc(-c2nnn(Cc3ccccc3Cl)n2)c1", "inhibition": "inconclusive: 22.3%"},
      {"compound": "CCOC(=O)Cc1nnc(NC(=O)CSc2nncn2C)s1", "inhibition": "inconclusive: 26.2%"},
      {"compound": "CCOc1cc(C(=O)Nc2ccc(S(=O)(=O)NC3=NCCCCC3)cc2)cc(Br)c1OC", "inhibition": "inconclusive: 16.8%"},
      {"compound": "Cc1ccccc1C(=O)NC1CCN(CC(=O)Nc2ccc3c(c2)OCO3)CC1", "inhibition": "inconclusive: 24.7%"},
      {"compound": "CC1(C)Cc2c(c(-c3ccccc3)nc(N3CCCC3)c2C(N)=O)CO1", "inhibition": "inconclusive: 12.9%"},
      {"compound": "O=C(c1ccc(Cl)s1)N1CCc2ccccc21", "inhibition": "inactive: 3.04%"},
      {"compound": "Nc1cc(OC(=O)c2cccs2)nn1S(=O)(=O)c1ccc(F)cc1", "inhibition": "active: 70%"},
      {"compound": "N#CC1=C2SCN(Cc3ccco3)CN2C(=O)CC1c1c(F)cccc1Cl", "note": "(stereo unspecified)", "inhibition": "inconclusive: 23.7%"},
      {"compound": "CC(C)CCCN1C(N(C)C)=NC[C@@H]1Cc1ccccc1", "inhibition": "inconclusive: 10.9%"},
      {"compound": "CN1Cc2c(N3CCOCC3)nc3sc(C(=O)c4ccc(Br)cc4)c(N)c3c2CC1(C)C", "inhibition": "inactive: 11.6%"},
      {"compound": "O=C(CSc1ncnc2ccccc12)c1ccco1", "inhibition": "active: 40.3%"},
      {"compound": "COc1ccc(NC(=O)C(=O)NCCN2CCN(C(=O)c3ccco3)CC2)cc1", "inhibition": "inactive: -9.79%"},
      {"compound": "CCCc1cc(=O)[nH]c(SCC(=O)NC)n1", "inhibition": "inactive: -1.49%"},
      {"compound": "COc1cccc(NC(=O)CN(C)C(=O)CCNC(=O)c2ccccc2Cl)c1", "inhibition": "inconclusive: 28.9%"},
      {"compound": "N#Cc1sc2nc(-c3cccs3)cc(-c3ccc(F)cc3)c2c1N", "inhibition": "inconclusive: 11.3%"},
      {"compound": "CN(CC(=O)Nc1ccccc1Br)C(=O)COc1ccc2ccccc2c1", "inhibition": "inconclusive: 22.5%"},
      {"compound": "COc1cccc(CN(CC(=O)NCc2ccccc2)C(=O)c2csnn2)c1", "inhibition": "inconclusive: 19.4%"},
      {"compound": "Cc1oc(-c2ccccc2F)nc1CSCC(=O)NC1CCCC1", "inhibition": "inactive: 6.51%"},
      {"compound": "CC(=C/c1ccc(C(C)C)cc1)/C=N/NC(=O)CSc1ccccn1", "inhibition": "inconclusive: 22.3%"},
      {"compound": "CN(CC(=O)Nc1ccc(Cl)c(C(F)(F)F)c1)C(=O)CCN1C(=O)C2CCCCC2C1=O", "note": "(stereo unspecified)", "inhibition": "inconclusive: 18.8%"},
      {"compound": "O=[N+]([O-])c1ccc(Sc2ncccn2)c([N+](=O)[O-])c1", "inhibition": "inconclusive: 16.2%"},
      {"compound": "CC(C)(C)NC(=O)NC(=O)COC(=O)c1nc(-c2ccccc2)n(-c2cccc(C(F)(F)F)c2)n1", "inhibition": "inconclusive: 15.4%"},
      {"compound": "CCc1noc(C)c1C(=O)NNC(=O)c1ccccc1Cl", "inhibition": "inactive: -0.0515%"},
      {"compound": "CCOC(=O)c1c(-c2ccc(-c3ccccc3)cc2)csc1NC(=O)c1cccc(N2C(=O)CCC2=O)c1", "inhibition": "inconclusive: 14.1%"},
      {"compound": "CCOc1cc(/C=C/c2cc(C(=O)O)c3ccccc3n2)ccc1O", "inhibition": "inactive: 11.5%"},
      {"compound": "CCN(CC)S(=O)(=O)c1cccc(NC(=O)C2SC(=Nc3ccc(C)cc3C)C(C(=O)NC(C)COC)=C2N)c1", "note": "(stereo unspecified)", "inhibition": "inconclusive: 23.1%"},
      {"compound": "COc1cc(CNc2ccc(S(N)(=O)=O)cc2)ccc1OCC(=O)NC1CCCCC1", "inhibition": "inconclusive: 18.8%"},
      {"compound": "Cn1c(SCC(=O)c2ccc3c(c2)OCCO3)nnc1C1CC1", "inhibition": "inconclusive: 26.7%"},
      {"compound": "CCNC(=O)NC(=O)C(C)OC(=O)CCCSc1nc2ccccc2s1", "note": "(stereo unspecified)", "inhibition": "inconclusive: 21.3%"},
      {"compound": "CSc1nc(-c2ccccc2)nc(SC)c1C(C)=O", "inhibition": "inactive: 3.23%"},
      {"compound": "Fc1ccc2cc(-c3cccnc3)ncc2c1", "inhibition": "inactive: -0.876%"},
      {"compound": "CCCCCCCCOC(=O)c1c(CSC(=N)N)n(C)c2cc(Br)c(OC(C)=O)cc12", "inhibition": "active: 33.2%"},
      {"compound": "CCCCSCCCNC(=O)c1ccc(CS(=O)(=O)c2ccccc2OC)o1", "inhibition": "inconclusive: 7.63%"},
      {"compound": "COc1ccccc1/C=C/C(=O)OCc1nc2ccccc2c(=O)[nH]1", "inhibition": "inactive: 6.13%"},
      {"compound": "O=C(O)c1ccccc1SCCS(=O)(=O)c1ccc(Cl)cc1Cl", "inhibition": "inactive: 1.14%"},
      {"compound": "O=c1[nH]c(Cc2ccccn2)nc2scc(-c3ccccc3Cl)c12", "inhibition": "inconclusive: 20.9%"},
      {"compound": "Cc1c(Br)c(C(F)(F)F)nn1CC(=O)NCCCn1ccnc1", "inhibition": "inactive: -0.315%"},
      {"compound": "C=CC[C@@H](CC(=O)NCCO)C(=O)N[C@@H](COC(=O)[C@@H](CC=C)Cc1ccc(F)cc1)Cc1c[nH]c2ccccc12", "inhibition": "active: 25.9%"},
      {"compound": "CCC1CCCCN1CCN1C(=O)C2C(C(=O)Nc3ccc(OC)cc3)C3C=CC2(O3)C1C(=O)NC1CCCCC1", "note": "(stereo unspecified)", "inhibition": "inconclusive: 20.2%"},
      {"compound": "Cc1cc([N+](=O)[O-])nn1CC(=O)Nc1sc2c(c1C(N)=O)CCCC2", "inhibition": "inconclusive: 18.1%"},
      {"compound": "CCOc1ccc(C(C)(C)C)cc1S(=O)(=O)Nc1ccncc1", "inhibition": "inactive: 8.65%"},
      {"compound": "COc1cc(NC(=O)c2cc(C)on2)cc(C(=O)Nc2cccc(C(F)(F)F)c2)c1", "inhibition": "inconclusive: 18.3%"},
      {"compound": "COc1ccc(CCCC(=O)N/N=C/c2cccc(OC)c2O)cc1C", "inhibition": "inactive: -6.08%"},
      {"compound": "Cc1ccc(Sc2ncccc2C(=O)NCc2cc([N+](=O)[O-])ccc2O)cc1C", "inhibition": "inactive: 5.8%"},
      {"compound": "O=S1(=O)NC(=NCc2ccco2)c2ccccc21", "inhibition": "inconclusive: 9.36%"},
      {"compound": "COc1ccc(-c2ccc(-c3nc4ccc(C)cn4c3NC3CCCCC3)cc2OC)cc1", "inhibition": "inactive: -4.37%"},
      {"compound": "CC(=O)c1cccc(NC(=O)C(C)OC(=O)Cc2c[nH]c3ccccc23)c1", "note": "(stereo unspecified)", "inhibition": "inconclusive: 37.4%"},
      {"compound": "CCS(=O)(=O)N1CCC(C(=O)NCCN2CCN(Cc3ccccc3)CC2)CC1", "inhibition": "inconclusive: 24.6%"},
      {"compound": "Nc1ccc(S(=O)(=O)N2CCCC2)cc1", "inhibition": "inconclusive: 16.5%"},
      {"compound": "Cc1ccc(-c2csc(Nc3ccccc3)[n+]2CCc2ccccc2)cc1", "inhibition": "inactive: -1.05%"}
    ]}
  ]
}
